# Screening data, single-dose tests

Source: ChEMBL document CHEMBL3988442, “University of Dundee, Small-Polar-MMV Screening Library” (2021).

Values are the deposited “Percent Effect”, in %. The record does not define 0% and 100%; most values in the screen are far below 50% and negative numbers occur (in some assays of this library far below -100). This is an unselected part of the compounds tested. Two or more numbers in one place are separate tests of the same structure; such repeats can differ widely. A dash means the value is not listed here; it may have been measured.

T. brucei: 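Whole-parasite assay of Trypanosoma brucei over 72 hours; the read-out is not stated. Concentration: 30 µM. Higher reads as stronger inhibition (inferred: compounds with an IC50 in retests scored well above the rest). Values scatter widely below zero; nearly all retest evidence comes from the higher of the two concentrations used. Size under these conditions: about 64,000 compounds, about 940 of them at 50% or above in at least one test.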
Leishmania in macrophages: 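Cell assay of Leishmania donovani living inside macrophages; the read-out is not stated. Concentration: 30 µM. Direction is inferred from retests: higher values go with stronger inhibition. About 69,000 compounds were tested under these conditions; 1.5% (about 1,000) showed 50% or more at least once.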

compound,T. brucei,Leishmania in macrophages
O=S(=O)(c1cccc(F)c1)N1CCCCC1c1ccn[nH]1 (configuration not stated),7.366,3.971 & 2.693
Cc1nc(NCCSc2ccccn2)c2c(C)noc2n1,-35.05,23.02
CN(Cc1cccnc1)C1COC2(CCN(Cc3nccs3)CC2)C1.O=C(O)C(F)(F)F.O=C(O)C(F)(F)F.O=C(O)C(F)(F)F (configuration not stated),-7.601,8.427
Cc1cnc(N2CCC3(C2)C(=O)N(C)CCN3Cc2cccnc2)nc1.O=C(O)C(F)(F)F.O=C(O)C(F)(F)F (configuration not stated),-31.63,13.58
CC(C)c1noc(CN(Cc2cccnc2)C2CN3CCC2CC3)n1 (configuration not stated),-27.19,-80.39
COc1cccc2c1OCC(CNC(=O)CCn1cnnn1)C2 (configuration not stated),-193,4.634
CCC(Nc1cccc(OC)c1)C(=O)NCc1ccc2[nH]c(=O)[nH]c2c1 (configuration not stated),-61.05,-1.318
COc1ccc(CN(C)[C@@H]2CN(C(=O)c3cncs3)C[C@H]2O)cc1,-10.64,-1.282
N#Cc1nccnc1N1CCC(c2nc(C(F)(F)F)c[nH]2)CC1,-108.4,-23.02
O=C(CNC(=O)N1CCc2c([nH]c3ccc(Cl)cc23)C1)N1CCOCC1,-17.06,1.704
CN(CCc1nc2cc(Cl)ccc2[nH]1)C(=O)c1ncn[nH]1,-,13.26
COCCN(Cc1sccc1C)Cc1nccn1CCOC,4.34,16.06
COc1ccc(CN2CCCn3nnc(COCC4CC4)c3C2)cc1.O=C(O)C(F)(F)F,-24.15,23.98
Cc1nn(C)c(N(C)C)c1CNCc1ccnc(N2CCCCC2)c1,1.687,31.02
COCC1CCN(C(=O)c2cn(Cc3ccccc3F)nn2)CC1,-9.248,25.71 & 22.1
Cc1nn(-c2ccccc2)c2c1C(c1ccc(C(=O)O)cc1)CC(=O)N2 (configuration not stated),16.38,8.894
CC(C(=O)Nc1cccc(Cl)c1SC(F)F)S(C)(=O)=O (configuration not stated),-,58.19
Cc1cnc(C(=O)N2CCC3(CC2)CC(c2ccccc2)C(=O)N3)cn1 (configuration not stated),-10.4,-14.86
O=C(O)C(F)(F)F.[H][C@@]12CN(Cc3[nH]cnc3C)C[C@]1([H])OCCN2c1ncccn1,0.08647,34.72
NC(=O)c1c(-c2ccc(Cl)cc2Cl)csc1NC(=O)CCC(=O)O,-54.52,-7.071
CC(=O)NCCCSC1CCN(c2ccccc2Cl)C1=O (configuration not stated),-35.27,5.297
O=C(Cn1nc(-c2ccc(F)cc2)oc1=O)Nc1ccccc1,17.3,-19.88
Cc1cc(CCC2CN(CC3(O)CCCCC3)CCO2)ncn1 (configuration not stated),-,-1.639
O=C(C1CC1)N1CCN(c2ccc(-n3cncn3)nn2)CC1,10.94,6.69 & 25.43
Cc1c(CN2C[C@@H](O)[C@H](Oc3cccc(F)c3)C2)cnn1C,-9.158,31.42
CC(=O)N1CCN(S(=O)(=O)c2ccc(C)c(F)c2)CC1,0.5413,15.75
COCC(=O)NCCCn1ncc2c(C)cccc21,-4.74,21.33
COCCNC(=O)c1cc2c(c3ccccc3n2C)n1C(=O)N(C)C,28.71,17.43
Cn1ccnc1CC1CCCN(C(=O)Nc2cccn(C)c2=O)C1 (configuration not stated),9.715,12.03
Cc1cc(C)nc(C2CCN(C(=O)c3cncnc3C)C2)n1 (configuration not stated),-2.366,15.37 & 6.109
CC(NC(=O)Nc1ccc(S(C)(=O)=O)cc1)c1ccc2c(c1)CC(=O)N2 (configuration not stated),-11.99,17.1
c1ccc(Cn2ccnc2CNC2CCCOc3ccccc32)cc1 (configuration not stated),18.54,4.41
CCc1cnc2c(c1Nc1cccc(OC)c1)c(=O)n(C)c(=O)n2C,-3.492,19.41
[H][C@]12C[C@H](CNC(=O)c3ccsc3)O[C@@]1([H])CN(C(=O)c1ccco1)C2,-92.22,37.08
Cc1cc(C(=O)N2CCC(c3nccn3Cc3ccccn3)CC2)no1,-14.85,-24.45
COc1ccccc1OC1CN(C(=O)CN(C)Cc2ccncc2)C1,-11.69,0.9212
CN(C)c1ccc(C(=O)N2CCCC2c2cnn(C)c2)cn1 (configuration not stated),1.632,23.15
CCc1nnc(CN(CC)C(=O)C2CC(=O)N(C3CCCC3)C2)o1 (configuration not stated),20.07,-15.82
O=C(O)C(F)(F)F.O=C(O)C(F)(F)F.[H][C@@]12CCCO[C@]1([H])[C@H](Nc1ccc(C)nn1)CN(Cc1cc(C)on1)C2,-34.05,-6.05
CCNC(=O)[C@H]1CN(Cc2ccccc2)C[C@@H]1C(=O)c1ccccc1,25.11,-8.436
[H][C@@]12CS(=O)(=O)C[C@]1([H])N(C(=O)c1csc(C)n1)CCN2C(=O)N(C)C,-9.897,-15.69

For reference, 2 entries once more:

compound,T. brucei,Leishmania in macrophages
Cc1c(CN2C[C@@H](O)[C@H](Oc3cccc(F)c3)C2)cnn1C,-9.158,31.42
COc1ccc(CN2CCCn3nnc(COCC4CC4)c3C2)cc1.O=C(O)C(F)(F)F,-24.15,23.98